Some of the results follow. Many values rest on one well or one pass, so single values are uncertain.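 Cells were imaged in 1,536-well plates, and nuclei stained with an antibody against cleaved PARP were counted against all DNA-stained nuclei to give the apoptosis fraction. Screening doses were chosen to leave most cells alive, and resting and induced cleaved-PARP levels differ strongly between cell lines.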
System: CBRC014 (line from a melanoma biopsy)
Assay: cleaved PARP positive nuclei fraction relative to DMSO control; melanoma cells; higher = more apoptosis
Conditions: library dose: low library concentration; 72 h

In order of rising “cleaved PARP positive nuclei fraction” value:
1. NCC(=O)Nc1ccc(-n2nc(C(F)(F)F)cc2-c2ccc3c(ccc4ccccc43)c2)cc1 + O=C1NC(=O)/C(=C/c2ccc(-c3ccc(F)cc3O)o2)S1 [AS252424] (first compound 1 µM, partner dose 1 µM)  77%
2. COc1cc2ncnc(Nc3ccc(Oc4ccccc4)cc3)c2cc1OC + O=C(O)C(=O)Nc1sc2c(c1C(=O)O)CCNC2 [TCS401] (first compound 2 µM, partner dose 1.66667 µM)  78.6%
3. N#Cc1c(O)c2c(-c3ccc(-c4ccccc4O)cc3)csc2[nH]c1=O + Cn1cc(/C=C2\C(=O)Nc3cccnc32)c2ccccc21 [GW441756] (first compound 2 µM, partner dose 0.4 µM)  86.6%
4. NCC(=O)Nc1ccc(-n2nc(C(F)(F)F)cc2-c2ccc3c(ccc4ccccc43)c2)cc1 + COc1cc2ncnc(Nc3ccc(Oc4ccccc4)cc3)c2cc1OC [SrcI1] (first compound 1 µM, partner dose 2 µM)  89.7%
5. COc1ccc(-c2ccc3c(N4CCOCC4)nc(N4C[C@@H](C)O[C@@H](C)C4)nc3n2)cc1CO + O=S(=O)(c1ccccc1)N(CC(F)(F)F)c1ccc(C(O)(C(F)(F)F)C(F)(F)F)cc1 [T0901317] (first compound 0.02 µM, partner dose 1.4 µM)  90.7%
6. COc1cc2c(Oc3ccc4[nH]c(C)cc4c3F)ncnc2cc1OCCCN1CCCC1 [cediranib] + O=C1NC(=O)/C(=C/c2ccc(-c3ccc(F)cc3O)o2)S1 [AS252424] (first compound 0.4 µM, partner dose 1 µM)  90.8%
7. NCC(=O)Nc1ccc(-n2nc(C(F)(F)F)cc2-c2ccc3c(ccc4ccccc43)c2)cc1 + CCc1ccc(CCOc2ccc(CC3SC(=O)NC3=O)cc2)nc1 [pioglitazone] (first compound 1 µM, partner dose 2 µM)  92%
8. O=C(Nc1ccccc1)c1cc([N+](=O)[O-])ccc1Cl + COc1ccc2c(c1)CCC1C2CCC2(C)C(NCCCCCCN3C(=O)C=CC3=O)CCC12 [U73122] (first compound 2 µM, partner dose 0.4 µM)  93.4%
9. COc1cc2ncnc(Nc3ccc(Oc4ccccc4)cc3)c2cc1OC + c1cc(-c2cnn3cc(-c4ccc(OCCN5CCCCC5)cc4)cnc23)ccn1 [Dorsomorphin] (first compound 2 µM, partner dose 0.4 µM)  94.1%
10. COc1ccc(COc2ccc(Cc3cnc(N)nc3N)cc2OC)cc1 + c1cc(-c2cnn3cc(-c4ccc(OCCN5CCCCC5)cc4)cnc23)ccn1 [Dorsomorphin] (first compound 1 µM, partner dose 0.4 µM)  96.4%
11. NCC(=O)Nc1ccc(-n2nc(C(F)(F)F)cc2-c2ccc3c(ccc4ccccc43)c2)cc1 + O=C(O)C(=O)Nc1sc2c(c1C(=O)O)CCNC2 [TCS401] (first compound 1 µM, partner dose 1.66667 µM)  98.9%
12. CCc1ccc(CCOc2ccc(CC3SC(=O)NC3=O)cc2)nc1 (stereo unspecified) [pioglitazone] + COC(=O)c1sccc1S(=O)(=O)Nc1ccc(Nc2ccccc2)cc1OC [GSK0660] (first compound 2 µM, partner dose 1 µM)  103%
13. COc1ccc(-c2ccc3c(N4CCOCC4)nc(N4C[C@@H](C)O[C@@H](C)C4)nc3n2)cc1CO + Oc1cc(-c2nc(-c3ccccc3)[nH]c2-c2ccncc2)ccc1Cl [L779450] (first compound 0.02 µM, partner dose 0.2 µM)  103%
14. O=C(O)c1ccc(-c2c[nH]c3ncc(-c4ccccc4)cc23)cc1C1CCCC1 + CCc1ccc(CCOc2ccc(CC3SC(=O)NC3=O)cc2)nc1 [pioglitazone] (first compound 0.16 µM, partner dose 2 µM)  107%
15. O=C(Nc1ccccc1)c1cc([N+](=O)[O-])ccc1Cl + CC(C)CCN1c2nc(Nc3cc(F)c(O)c(F)c3)ncc2N(C)C(=O)C1C [BID1870] (first compound 2 µM, partner dose 0.2 µM)  107%
16. O=C(O)c1ccc(-c2c[nH]c3ncc(-c4ccccc4)cc23)cc1C1CCCC1 + Oc1cc(-c2nc(-c3ccccc3)[nH]c2-c2ccncc2)ccc1Cl [L779450] (first compound 0.16 µM, partner dose 0.2 µM)  107%
17. CN(C)S(=O)(=O)c1ccc2c(c1)/C(=C/c1cc3c([nH]1)CCCC3)C(=O)N2 + COc1ccc(COc2ccc(Cc3cnc(N)nc3N)cc2OC)cc1 [GW2580] (first compound 0.4 µM, partner dose 1 µM)  107%
18. O=S(=O)(c1ccccc1)N(CC(F)(F)F)c1ccc(C(O)(C(F)(F)F)C(F)(F)F)cc1 + Cc1cc([N+](=O)[O-])ccc1NS(=O)(=O)c1cc(Cl)ccc1Cl [FH535] (first compound 1.4 µM, partner dose 1 µM)  141%
19. CCN(CC)CCCCNc1ncc2cc(-c3cc(OC)cc(OC)c3)c(NC(=O)NC(C)(C)C)nc2n1 + Cc1cc([N+](=O)[O-])ccc1NS(=O)(=O)c1cc(Cl)ccc1Cl [FH535] (first compound 0.1 µM, partner dose 1 µM)  151%
20. Oc1nc(-c2ccc(C(F)(F)F)cc2)nc2c1CSCC2 + O=c1cc(-c2cccc3c2Sc2ccccc2S3)oc(N2CCOCC2)c1 [KU55933] (first compound 2 µM, partner dose 1 µM)  156%
21. COc1cc2ncnc(Nc3ccc(Oc4ccccc4)cc3)c2cc1OC + Oc1cc(-c2nc(-c3ccccc3)[nH]c2-c2ccncc2)ccc1Cl [L779450] (first compound 2 µM, partner dose 0.2 µM)  196%

From the supplement of paper PMC4604168 (melanoma cell lines)
